Assay results reported in article PMC4074974.

Chains of the proteins cited; added tags and fusions are not shown. A change or cut given only in a name is not applied to a line headed by its entry. A line that says so, or that is headed by a name, gives the form on record, which may keep a tag or linker.
UniProt Q9UQR0: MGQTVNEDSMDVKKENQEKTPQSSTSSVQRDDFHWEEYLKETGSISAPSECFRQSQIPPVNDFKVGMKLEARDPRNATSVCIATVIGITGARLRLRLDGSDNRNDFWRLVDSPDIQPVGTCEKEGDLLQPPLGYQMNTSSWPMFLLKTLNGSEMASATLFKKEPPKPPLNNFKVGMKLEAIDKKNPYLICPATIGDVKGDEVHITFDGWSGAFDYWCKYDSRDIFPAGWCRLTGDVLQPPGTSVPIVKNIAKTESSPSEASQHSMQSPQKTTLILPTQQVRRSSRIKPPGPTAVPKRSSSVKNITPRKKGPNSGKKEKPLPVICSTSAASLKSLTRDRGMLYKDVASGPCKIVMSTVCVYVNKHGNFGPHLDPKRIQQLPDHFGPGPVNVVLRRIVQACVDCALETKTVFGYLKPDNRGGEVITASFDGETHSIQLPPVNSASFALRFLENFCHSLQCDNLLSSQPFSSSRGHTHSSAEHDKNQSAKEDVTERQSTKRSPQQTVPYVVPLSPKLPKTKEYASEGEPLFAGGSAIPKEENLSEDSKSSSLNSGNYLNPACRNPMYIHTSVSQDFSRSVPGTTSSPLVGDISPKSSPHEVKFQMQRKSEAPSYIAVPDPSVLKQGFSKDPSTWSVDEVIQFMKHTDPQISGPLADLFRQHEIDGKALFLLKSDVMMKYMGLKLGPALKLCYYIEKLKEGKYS
SCML2 fragment with RBR (Fig. 1D left) (human), one chain, as listed by the source: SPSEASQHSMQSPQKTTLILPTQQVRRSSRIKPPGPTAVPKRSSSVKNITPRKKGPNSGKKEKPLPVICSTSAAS

Assays:
[1] = target: SCML2 fragment lacking RBR (deltaRBR) (human) (UniProt Q9UQR0); assay: pull-down; details: pull-down: 20 mM Tris pH 7.9, 1 mM MgCl2, 0.05% IGEPAL CA-630, RNase inhibitor, 1 h 4 C, recombinant protein, protein details: GST
[2] = tested on: SCML2 fragment with RBR (Fig. 1D left) (human); assay: pull-down; details: pull-down: 20 mM Tris pH 7.9, 1 mM MgCl2, 0.05% IGEPAL CA-630, RNase inhibitor, 1 h 4 C, recombinant protein, protein details: GST
[3] = letters put together from the description

GGGCAAGCUGGUCAUUAACGGCAAGACUCUGAAGGGCGAGACCACCACCAAGGCCGUGGACGCAGAAACCGCUGAAAAGGCAUUCAAGCAGUACGCUAACGACCC [sRNA (synthetic 100 nt)]
binding result [1, 3]: no binding | binding result [2, 3]: binds

GGCAAGCTGGTCATTAACGGCAAGACTCTGAAGGGCGAGACCACCACCAAGGCCGTGGACGCAGAAACCGCTGAAAAGGCATTCAAGCAGTACGCTAACGACCC (double strand) [dsDNA (sDNA + complement)]
binding result [1]: no binding | binding result ([2]; discriminated between RNA and DNA): binds more weakly

GGCAAGCTGGTCATTAACGGCAAGACTCTGAAGGGCGAGACCACCACCAAGGCCGTGGACGCAGAAACCGCTGAAAAGGCATTCAAGCAGTACGCTAACGACCC [sDNA]
binding result ([1]; single-stranded DNA): no binding | binding result ([2]; discriminated between RNA and DNA, single-stranded DNA): binds more weakly

For at least one entry, the source does not settle the construct or the ends of the probe. For part of these data: Negatives hold for the conditions tested. For part of these data: The comparison behind a weaker result is the experiment's own reference, which may not be listed here. For part of these data: At least one verdict rests on a figure or table, not on a statement of the authors.
